# Test results published in the supplement of paper PMC9135407.
# “And” between values parts separate entries of the source, which are not always exact repeats. Equal entries are not always repeated. Structures can show the parent of a compound that is named as a salt. ± gives the standard deviation of the averaged measurements. This is one part of the list. Baselines shift from plate to plate; read single values as rough.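 Culture-activated primary human stellate myofibroblasts, where regained lipid droplets signal inactivation. Value: share of Hoechst-counted cells above a per-plate Bodipy cutoff, in duplicate wells, with DMSO negative and nortriptyline positive controls on each plate. Hits: a control-normalized score above the plate's top-tenth-percentile nortriptyline wells, or one of a plate's three best wells. Final well concentrations are not given.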
# Tested on: primary human hepatic stellate cells (donor 1)
# Test: percent Bodipy-positive cells; higher = more lipid droplet accumulation
# Conditions: 48 h
# [1] = library stock concentration: 10 mM
# [2] = library stock concentration: 3.33 mM
# [3] = library stock concentration: 80 uM
# [4] = library stock concentration: 400 uM
# [5] = library stock concentration: 2 mM
# [6] = library stock concentration: 7.5 mM
structure (smiles),measurement,setting,value
O=C(O)CCC/C=C\C[C@H]1C(=O)C=C[C@@H]1/C=C/[C@@H](O)COc1ccccc1 [16-phenoxy tetranor Prostaglandin A2],percent Bodipy-positive cells,library stock concentration: 1 mM,14.1 ± 3%
C[C@]12CCC(=O)C=C1CC[C@@H]1[C@@H]2CC[C@@]2(C)[C@H]1CC[C@]2(O)C(=O)CO [Reichstein?s substance?S],percent Bodipy-positive cells,[1],7.18 ± 0.2%
C[C@]12CCC(=O)C=C1CC[C@@H]1[C@@H]2CC[C@@]2(C)[C@H]1CC[C@]2(O)C(=O)CO [Cortexolone],percent Bodipy-positive cells,[1],10.9 ± 0.6%
COC(=O)C1=C(C)NC(C)=C(C(=O)OC(C)(C)CN(C)CCC(c2ccccc2)c2ccccc2)C1c1cccc([N+](=O)[O-])c1 (centres undefined) [Lercanidipine hydrochloride hemihydrate],percent Bodipy-positive cells,[1],64.9 ± 7%
COc1cc2nccc(Oc3ccc(NC(=O)Nc4ccc(F)cc4F)c(F)c3)c2cc1OC,percent Bodipy-positive cells,[1],67.2 ± 1.1%
CN1CC(O)C(O)C(O)C1CO (centres undefined) [N-Methyl-1-deoxynojirimycin],percent Bodipy-positive cells,[1],51.2 ± 13%
CCCCc1oc2ccc(NS(C)(=O)=O)cc2c1C(=O)c1ccc(OCCCN(CCCC)CCCC)cc1 [Dronedarone HCl],percent Bodipy-positive cells,[2],97.1 ± 1.5%
same,percent Bodipy-positive cells,[1],96 ± 5.7%
N#Cc1ccc2c(c1)N(CCCN1CCC(O)CC1)c1ccccc1S2 [Periciazine],percent Bodipy-positive cells,[1],64.3 ± 17%
COC(=O)N[C@H](C(=O)N1CCC[C@H]1c1ncc(-c2ccc(-c3ccc(-c4cnc([C@@H]5CCCN5C(=O)[C@@H](NC(=O)OC)C(C)C)[nH]4)cc3)cc2)[nH]1)C(C)C,percent Bodipy-positive cells,[1],98.72 ± 0.1%
CCn1cc(-c2ccnc3[nH]c(-c4cccc(CN(C)C)c4)cc23)c(-c2ccc(NC(=O)N(C)C)cc2)n1,percent Bodipy-positive cells,[1],99.7 ± 0.42%
CCC1(c2ccccc2)C(=O)NCNC1=O,percent Bodipy-positive cells,[1],26.303 ± 0.018%
CCC1(c2ccccc2)C(=O)NCNC1=O [Primidone],percent Bodipy-positive cells,,7.8 ± 0.89%
same,percent Bodipy-positive cells,[2],10 ± 3.1%
same,percent Bodipy-positive cells,library stock concentration: 9.2 mM,23.6 ± 17%
Cc1ccc(Nc2cc(-c3cccc(N4C(=O)c5ccccc5C4=O)c3)ncn2)cc1NS(C)(=O)=O,percent Bodipy-positive cells,[3],12.9 ± 0.51%
same,percent Bodipy-positive cells,[4],12.9 ± 6.9%
same,percent Bodipy-positive cells,[5],11.4 ± 5.9%
same,percent Bodipy-positive cells,[1],17.2 ± 3%
CC(=O)OC[C@H]1O[C@@H]([S-])[C@H](OC(C)=O)[C@@H](OC(C)=O)[C@@H]1OC(C)=O.CCP(CC)CC.[Au+] [Auranofin],percent Bodipy-positive cells,[1],99.46 ± 0.76%
O=C(c1ccccc1)c1ccc(N2CCOCC2)cc1O [DNA-PK Inhibitor V],percent Bodipy-positive cells,[2],11.3 ± 0.86%
COc1cc(Nc2c(C#N)cnc3cc(OCCCN4CCN(C)CC4)c(OC)cc23)c(Cl)cc1Cl [Bosutinib (SKI-606) (2 mM)],percent Bodipy-positive cells,[5],34.6 ± 13%
COc1cc(Nc2c(C#N)cnc3cc(OCCCN4CCN(C)CC4)c(OC)cc23)c(Cl)cc1Cl [Bosutinib (SKI-606) (10 mM)],percent Bodipy-positive cells,[1],96.8 ± 4.5%
COc1cc(Nc2c(C#N)cnc3cc(OCCCN4CCN(C)CC4)c(OC)cc23)c(Cl)cc1Cl [Bosutinib (SKI-606)],percent Bodipy-positive cells,[2],37.6 ± 2%
same,percent Bodipy-positive cells,[1],92.7 ± 9%
COc1cc(Nc2c(C#N)cnc3cc(OCCCN4CCN(C)CC4)c(OC)cc23)c(Cl)cc1Cl [Bosutinib],percent Bodipy-positive cells,[3],3.85 ± 1.1%
same,percent Bodipy-positive cells,[4],7.33 ± 1.9%
same,percent Bodipy-positive cells,[5],19.8 ± 1.6%
same,percent Bodipy-positive cells,[1],71.7 ± 9.8%
COc1cc(Nc2c(C#N)cnc3cc(OCCCN4CCN(C)CC4)c(OC)cc23)c(Cl)cc1Cl [Bosutinib (SKI-606) (0.4 mM)],percent Bodipy-positive cells,[4],15.5 ± 2.5%
CNCc1cn(C2CCN(CCC(C)CC(C)(C)C)CC2)nn1 (centres undefined),percent Bodipy-positive cells,[1],98.55 ± 0.92%
"c(c1N)(C(=O)\N=C(\N)/N)nc(c(N2CCCCCC2)n1)Cl [5-(N,N-hexamethylene)amiloride]",percent Bodipy-positive cells,[1],100%
NC(Cn1ccc(=O)c(O)c1)C(=O)O (centres undefined) [Mimosine],percent Bodipy-positive cells,,32.9 ± 16%
same,percent Bodipy-positive cells,[1],23.4 ± 2%
CCOC(=O)[C@H]1O[C@@H]1C(=O)N[C@@H](CC(C)C)C(=O)NCCC(C)C [Aloxistatin],percent Bodipy-positive cells,[2],26.2 ± 3.3%
same,percent Bodipy-positive cells,[1],49.8 ± 33%
CC(CN(C)C)CN1c2ccccc2Sc2ccccc21.O=C(O)C(O)C(O)C(=O)O (centres undefined) [Trimeprazine tartrate],percent Bodipy-positive cells,library stock concentration: 4.5 mM,81.02 ± 0.32%
CC(C)NCC(O)COc1ccc(CC(N)=O)cc1 (centres undefined) [(?)-Atenolol],percent Bodipy-positive cells,[1],52.8 ± 5.6%
CC(C)NCC(O)COc1ccc(CC(N)=O)cc1 (centres undefined),percent Bodipy-positive cells,[1],24.5 ± 1.6%
CC(C)NCC(O)COc1ccc(CC(N)=O)cc1 (centres undefined) [Atenolol],percent Bodipy-positive cells,[6],8.76% and 23.1%
same,percent Bodipy-positive cells,[1],14.3 ± 5.2%
CCCCNc1ncc(C(=O)NCc2ccc(-n3ccnc3)cc2)c(NC2CCC(O)CC2)n1 (centres undefined),percent Bodipy-positive cells,[2],61.4 ± 2.4%
same,percent Bodipy-positive cells,[1],84.8 ± 3.2%
C=CC(=O)Nc1cccc(Sc2nc(Nc3ccc(N4CCN(C)CC4)cc3)ncc2Cl)c1,percent Bodipy-positive cells,[2],12.3 ± 3.2%
same,percent Bodipy-positive cells,[1],83.2 ± 13%
Cn1c(=O)c2c(ncn2CC2OCCO2)n(C)c1=O [Doxofylline],percent Bodipy-positive cells,[2],10.9 ± 8.3%
same,percent Bodipy-positive cells,[6],9.62 ± 0.29%
same,percent Bodipy-positive cells,[1],41 ± 17%
CCN(CC)CCCCNc1ncc2cc(-c3cc(OC)cc(OC)c3)c(NC(=O)NC(C)(C)C)nc2n1,percent Bodipy-positive cells,[5],93.7 ± 3%
same,percent Bodipy-positive cells,[1],98.14 ± 0.81%
COCC(=O)NC/C=C/c1ccc2ncnc(Nc3ccc(Oc4ccc(C)nc4)c(C)c3)c2c1,percent Bodipy-positive cells,[3],9.6 ± 2.2%
same,percent Bodipy-positive cells,[4],10.4% and 26.4%
same,percent Bodipy-positive cells,[1],20.1 ± 1.8%
CCCCC/C=C\C[C@@H](O)/C=C/C=C\C/C=C\CCCC(=O)O,percent Bodipy-positive cells,library stock concentration: 100 uM,7.14 ± 7.9%
CC(=O)N(CC(O)CO)c1c(I)c(C(=O)NCC(O)CO)c(I)c(C(=O)NCC(O)CO)c1I (centres undefined) [Iohexol],percent Bodipy-positive cells,,32 ± 11%
CN(CCCCCCCCCCN(C)C(=O)Oc1cccc([N+](C)(C)C)c1)C(=O)Oc1cccc([N+](C)(C)C)c1 [Demecarium bromide],percent Bodipy-positive cells,,23.3 ± 4.9%
COC(=O)Nc1nc2cc(Sc3ccccc3)ccc2[nH]1 [Fenbendazole],percent Bodipy-positive cells,,30.4 ± 2.9%
same,percent Bodipy-positive cells,[2],41.4 ± 8.1%
same,percent Bodipy-positive cells,library stock concentration: 6.7 mM,83.6% and 84%

# Random excerpt: two entries already listed
structure (smiles),measurement,setting,value
COc1cc(Nc2c(C#N)cnc3cc(OCCCN4CCN(C)CC4)c(OC)cc23)c(Cl)cc1Cl [Bosutinib],percent Bodipy-positive cells,[4],7.33 ± 1.9%
COC(=O)C1=C(C)NC(C)=C(C(=O)OC(C)(C)CN(C)CCC(c2ccccc2)c2ccccc2)C1c1cccc([N+](=O)[O-])c1 (centres undefined) [Lercanidipine hydrochloride hemihydrate],percent Bodipy-positive cells,[1],64.9 ± 7%
